The other results are listed elsewhere or left out.

The assay addresses T1, OsSMF1 (Oryza sativa, UniProt Q6ZLB0 1-436).
T1 sequence: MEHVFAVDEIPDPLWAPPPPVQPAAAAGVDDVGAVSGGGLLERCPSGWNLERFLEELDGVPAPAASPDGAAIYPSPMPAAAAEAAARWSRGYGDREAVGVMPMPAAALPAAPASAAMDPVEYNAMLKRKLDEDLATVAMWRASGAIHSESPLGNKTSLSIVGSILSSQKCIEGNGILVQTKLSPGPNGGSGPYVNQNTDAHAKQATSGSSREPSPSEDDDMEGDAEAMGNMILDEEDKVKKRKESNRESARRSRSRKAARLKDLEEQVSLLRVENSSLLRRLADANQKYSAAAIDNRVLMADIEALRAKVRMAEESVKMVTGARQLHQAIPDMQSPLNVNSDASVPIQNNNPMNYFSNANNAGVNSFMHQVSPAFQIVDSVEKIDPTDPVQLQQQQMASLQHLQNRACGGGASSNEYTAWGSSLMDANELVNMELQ
As to the kind of experiment: protein-binding microarray (RPBM); PBS, 2% BSA, 51.3 ng/ul salmon testes DNA, 50 uM zinc acetate, 200 nM TF, 25 C, 1 h; high values mean tight binding. The settings on record: protein: recombinant; tags: N-terminal polyhistidine and DsRed monomer fusion (pET32a); chain copies: 2; label: CyDye5-dUTP incorporated in the synthesized complementary strand; 3' TTTTT single-stranded linker to array surface; dsDNA, one strand shown. In a few lines: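 Binding signal is reported as fluorescence intensity per feature (arbitrary units) from an Axon 4000B scanner. Incubation used 200 nM of each Ni–NTA-purified, N-terminally polyhistidine- and DsRed-fused transcription factor from E. coli BL21-CodonPlus on a double-stranded custom Agilent array for 1 h at 25 °C, with 50 µM zinc acetate in the buffer, followed by washing.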
Regarding “AATACCAACTGTTTGATTTGAATCGTGTGATGTACTTCACCGGAGTCACCTAGTGCAG”, the binding signal is 3360 fluorescence intensity (a.u.).

“GCGGATTCCTTCCTTCCTCCCTCCGTCGCCGCCTTCTCTTCGGAGTCACCTAGTGCAG”: the binding signal was 20600 fluorescence intensity (a.u.).

As to “TAAAATTGTCACACTCCCTATGTATGATGTGTTAGCGTTGCGGAGTCACCTAGTGCAG”, the binding signal was 3730 fluorescence intensity (a.u.).

“GTGTGGGGCCACGTCACAGTGGGCCCCATATGTCGGTGGGCGGAGTCACCTAGTGCAG”: the binding signal was 12700 fluorescence intensity (a.u.).

As for “GTGTCGCCGAAGCTATAAAAGCGATCGGAAATAATCAGAACGGAGTCACCTAGTGCAG”, the binding signal is 29700 fluorescence intensity (a.u.).

In the case of “ATGCATATATTATAGGTGCCGGTTTTATACCGATGATCAACGGAGTCACCTAGTGCAG”, the binding signal is 18100 fluorescence intensity (a.u.).

On to “CTCACTTGCAACGTCAGTTAAAACTAGTTACTATGCTGTCCGGAGTCACCTAGTGCAG”, for which the binding signal was 4930 fluorescence intensity (a.u.).

Take “TACCACTCATTTGTGATAGATGAGATGCCACTTGTCTCCCCGGAGTCACCTAGTGCAG”: the binding signal was 3810 fluorescence intensity (a.u.).

For the sequence “AGCCAAACGCCCTCCACCCATAGCCTGACAAGTGGGACCCCGGAGTCACCTAGTGCAG”, the binding signal was 19200 fluorescence intensity (a.u.).

With “GCAGCGCCGTGAACGGCTCCGGCGGCCGCGTCACGAGCGTCGGAGTCACCTAGTGCAG”, the binding signal is 6070 fluorescence intensity (a.u.).

With “GGAGGGTGGGGTAGGAGAGGATGCGGCGGGCGCCATGGCTCGGAGTCACCTAGTGCAG”, the binding signal is 3450 fluorescence intensity (a.u.).

With “GGTATATCCCCGGCCGTCTGCCACCTACCATATGGCGTTGCGGAGTCACCTAGTGCAG”, the binding signal is 4060 fluorescence intensity (a.u.).

With “TCAAATACCTGCCCGTACCCATGGACAGGCCAAAAGTTCACGGAGTCACCTAGTGCAG”, the binding signal was 3660 fluorescence intensity (a.u.).

As to “GTCACGATAGCCACGGTGCATGCGGAGGAGGCATATGACACGGAGTCACCTAGTGCAG”, the binding signal is 24900 fluorescence intensity (a.u.).

In the case of “CCTCGTATGTCATGTTGTCTGGATCATCGTTATCATCCTGCGGAGTCACCTAGTGCAG”, the binding signal was 3160 fluorescence intensity (a.u.).

In the case of “GCTGTTGGAGTGAGGAATGAGTTTGGTTTGCCAAATCAATCGGAGTCACCTAGTGCAG”, the binding signal was 6630 fluorescence intensity (a.u.).

Consider “AAACTCCCTCCTCTTCACTCCCAATCCGCCCTAAACGCCACGGAGTCACCTAGTGCAG”, for which the binding signal was 3160 fluorescence intensity (a.u.).

For the sequence “TATAATGTTTCATTAGGTAGTACCACCATAGTACTCCAAACGGAGTCACCTAGTGCAG”, the binding signal is 21400 fluorescence intensity (a.u.).

Consider “AAAATTCGAATCAGGCGGAGCCACCTCACCTCGCCGCGGCCGGAGTCACCTAGTGCAG”, for which the binding signal is 5020 fluorescence intensity (a.u.).

With “TTCCCCTCTTCTAGGTATTCGTGACTCGGTTGGCACAAATCGGAGTCACCTAGTGCAG”, the binding signal is 4720 fluorescence intensity (a.u.).

Regarding “GTACAGAGGATCGGCGCCCACCACATCACCCATGTCCCAGCGGAGTCACCTAGTGCAG”, the binding signal was 6620 fluorescence intensity (a.u.).

Consider “CTATCTCACACGTCTCGCCTCTCTCCGCTTCGGCGCTTGGCGGAGTCACCTAGTGCAG”, for which the binding signal was 3410 fluorescence intensity (a.u.).

As for “TTATGATCCAGGAATGGTGCACTGTGGTGAGTTGTGATGTCGGAGTCACCTAGTGCAG”, the binding signal is 3690 fluorescence intensity (a.u.).

Regarding “GGCCTCCGCCGCACGCACCCTCCCCATCGTGGCGCGCGCCCGGAGTCACCTAGTGCAG”, the binding signal was 3750 fluorescence intensity (a.u.).

For “AAAATCTGTCATCGTCGTATCATGCATGTCGAATGTTTTGCGGAGTCACCTAGTGCAG”, the binding signal was 4380 fluorescence intensity (a.u.).

In the case of “TGGCTAACTACTCAACATGCACTTGGTTCATTCGCCGTCACGGAGTCACCTAGTGCAG”, the binding signal is 3580 fluorescence intensity (a.u.).

Regarding “CACCTTAAATTAGGTGACATCGGCCTATTTGAATTTGGCTCGGAGTCACCTAGTGCAG”, the binding signal was 3900 fluorescence intensity (a.u.).

Take “GTACGTACGCAGGCCAAGCCGTCGTACACGTAACACGTCCCGGAGTCACCTAGTGCAG”: the binding signal is 6110 fluorescence intensity (a.u.).

Turning to “CCATAATGCAGATTAATAAATATTGAGTGTATCCATCATACGGAGTCACCTAGTGCAG”, the binding signal is 5010 fluorescence intensity (a.u.).

For the sequence “CTGTTTGGTTGTGCAGAAGGTATATTGACCATGCAGGGTACGGAGTCACCTAGTGCAG”, the binding signal is 3530 fluorescence intensity (a.u.).

In the case of “TGTACTTTTCCCAATCCCTAGTCATCCCTTTACTAGGCCCCGGAGTCACCTAGTGCAG”, the binding signal is 3270 fluorescence intensity (a.u.).

With “AAGCACCACCTCAGCGTGGACTAGATCTCCGGTTGGCTTACGGAGTCACCTAGTGCAG”, the binding signal was 3270 fluorescence intensity (a.u.).

In the case of “TCGATCCTGATTGAACGGTCATGATTTATAAGTTCTATTTCGGAGTCACCTAGTGCAG”, the binding signal is 3350 fluorescence intensity (a.u.).

Take “ATTTGTCTTATGTATATGCTGTATAGGATCTATGGACGCCCGGAGTCACCTAGTGCAG”: the binding signal is 3520 fluorescence intensity (a.u.).

For the sequence “AGATTATAGCTAAAATAAATCTTAGGTGGCAATGCCAAAACGGAGTCACCTAGTGCAG”, the binding signal was 3400 fluorescence intensity (a.u.).

Regarding “TGTCCTTGTGGTGGTAAACCATTTGTTTAGCCCAGAAGCGCGGAGTCACCTAGTGCAG”, the binding signal is 28800 fluorescence intensity (a.u.).

Take “TTGCGTTTATTTCATATCGTGAGCAATGGTGTGACATTGGCGGAGTCACCTAGTGCAG”: the binding signal was 3600 fluorescence intensity (a.u.).

As for “TGGACGGAGGTAGTAACCGTGTCATCAACCATATTGCGCCCGGAGTCACCTAGTGCAG”, the binding signal was 3510 fluorescence intensity (a.u.).

“GCATTGTGTATTTGTGTGTTACTGTATTTAGTGATAAACCCGGAGTCACCTAGTGCAG”: the binding signal was 22600 fluorescence intensity (a.u.).

Take “TTATACTATATTATCCTTCCTCTCCCATGTATTGAGGGTGCGGAGTCACCTAGTGCAG”: the binding signal is 3610 fluorescence intensity (a.u.).

Take “GGCGGAAGAGGACGCGGTTCGTGCGTGCGCCACCGTCGGCCGGAGTCACCTAGTGCAG”: the binding signal is 3520 fluorescence intensity (a.u.).

As for “GTAACTTCAAGCTTGTTGAGTGAGTTGTACTGTTACTGTTCGGAGTCACCTAGTGCAG”, the binding signal was 3510 fluorescence intensity (a.u.).

For “ATGTGAGTCCTATGAGCGTCACGTAGGATGAAACCGCTATCGGAGTCACCTAGTGCAG”, the binding signal is 5270 fluorescence intensity (a.u.).

Turning to “CACGACGAGCCGATTTGTGTCACAATGTCTCACATCCGAACGGAGTCACCTAGTGCAG”, the binding signal was 26800 fluorescence intensity (a.u.).

On to “TATCCACTCCCACCGCGCGCGCCACCTGTACAAGAGAAAACGGAGTCACCTAGTGCAG”, for which the binding signal was 3700 fluorescence intensity (a.u.).

Consider “TCTTTGGACACGTGTATGAAGCATTAAATATAGATAAATACGGAGTCACCTAGTGCAG”, for which the binding signal was 7610 fluorescence intensity (a.u.).

Take “GATATACACATTGACAAGGGCAGTATGCACGTAGGTCTGGCGGAGTCACCTAGTGCAG”: the binding signal was 3270 fluorescence intensity (a.u.).

As to “CCGTTGATCCAAAACTGATTTAACTCGATCTCACCATACACGGAGTCACCTAGTGCAG”, the binding signal was 26200 fluorescence intensity (a.u.).

In the case of “AAACCACGGCATTTTCCTCGCTCCCTTCTCTTCTTCCTTTCGGAGTCACCTAGTGCAG”, the binding signal is 3150 fluorescence intensity (a.u.).

Consider “TGGCGCCACCTAGGAGAGGGGTATGGTGACGAGGCGTGCGCGGAGTCACCTAGTGCAG”, for which the binding signal is 6620 fluorescence intensity (a.u.).

Take “CTTTGGAGTTTGATCCATGGGATGAGTCATATTCAACGGCCGGAGTCACCTAGTGCAG”: the binding signal was 6740 fluorescence intensity (a.u.).

For the sequence “CCCCTCAGGAAGGGTGTCAACTCTCTTGTCATCATGGTTACGGAGTCACCTAGTGCAG”, the binding signal is 3180 fluorescence intensity (a.u.).

As for “CCCATGACATGGCACCATTACATCACTCTCTCTCTCTCGCCGGAGTCACCTAGTGCAG”, the binding signal is 8330 fluorescence intensity (a.u.).

With “CTCCGTTACCGCGTGAGACCGCATGGTCTTTCGCCGCGTGCGGAGTCACCTAGTGCAG”, the binding signal is 3410 fluorescence intensity (a.u.).
